# The star is where a group is joined. Dde = CC(=C1C(=O)CC(C)(C)CC1=O)*; Boc = CC(C)(C)OC(=O)*
# Legend:
# [1] = general procedure: Fmoc solid-phase peptide synthesis; Fmoc-Tyr(OtBu)-Wang Resin; Wang Resin (0.60 mmol/g); HMPB-BHA resin (0.86 mmol/g); HBTU/HOBT/DIEA; HATU/DIEA; settings: conjugation step
# [2] = general procedure: Fmoc solid-phase peptide synthesis; HMPB-BHA resin; HBTU/HOBT/DIEA; HATU/DIEA; settings: whole synthesis
Substance,conjugation yield [1] [%],isolated yield [2] [%]
"3-(6-(3-(N-(3-((6-((1-Aza-2-(2-sulfophenyl)vinyl)amino)(3-pyridyl))-Gly-Lys-Lys-Lys)aminopropyl)carbamoyl)propoxy)-2-(5-(5-oxo-1-prop-2-enyl(2-6,7,8-trihydronaphthyloxy))pentyloxy)phenyl)propanoic Acid",35,–
Boc-GK(Dde)K(Dde)K(Dde)-OH,–,35

# From patent EP0999856B1 (Bristol-Myers Squibb Pharma Company, priority 1996, dated 1998)
